Results reported in US10420844B2, “Peptide pharmaceuticals” (Mederis Diabetes LLC, priority 2011, dated 2019).
Not every detail of the peptide structures is certain; ends, links or a residue may be inferred. Non-standard residues stand in square brackets, D forms with d. Residues, ends and D or L forms follow the SMILES beside them. *: point of attachment. GlcA(β-D,1-O-dodecyl) = CCCCCCCCCCCCO[C@@H]1O[C@H](C(=O)*)[C@@H](O)[C@H](O)[C@H]1O; GlcA(β1-O-octyl) = CCCCCCCCO[C@@H]1O[C@H](C(=O)*)[C@@H](O)[C@H](O)[C@H]1O; Dmt = Cc1cc(O)cc(C)c1C[C@H](N)C(=O)O; Tic = O=C(O)[C@@H]1Cc2ccccc2CN1; Aib = CC(C)(N)C(=O)O

Protein sequences, listed by entry. Tags and fused reporters are not part of them.
UniProt P35372, whole entry: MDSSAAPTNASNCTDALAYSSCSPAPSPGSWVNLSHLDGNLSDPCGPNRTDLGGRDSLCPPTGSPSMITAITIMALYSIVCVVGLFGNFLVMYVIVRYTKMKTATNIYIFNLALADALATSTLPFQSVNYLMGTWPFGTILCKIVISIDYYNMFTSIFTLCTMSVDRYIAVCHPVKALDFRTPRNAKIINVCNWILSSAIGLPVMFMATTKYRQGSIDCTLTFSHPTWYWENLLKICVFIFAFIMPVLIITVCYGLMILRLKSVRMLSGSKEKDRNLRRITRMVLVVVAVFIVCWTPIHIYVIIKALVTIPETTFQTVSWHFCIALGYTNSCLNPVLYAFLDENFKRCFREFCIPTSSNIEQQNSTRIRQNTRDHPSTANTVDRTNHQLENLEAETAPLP

Biological target: T1, mu opioid receptor (Homo sapiens, UniProt P35372)
T1 construct: Cerep SA (contract research organization)
Assay: mu opioid receptor cellular assay (MOP, agonist and antagonist mode), cAMP readout, Cerep
Format: cell-based
Conditions: MOP agonist mode and DOP antagonist mode
Experimental: Compounds were weighed precisely in an amount of approximately 2 mg and assayed in standard cellular assays by the contract research organization Cerep, Inc. (Pullman, Wash.) as executed at their subsidiary, Cerep SA (Le Bois l'Eveque, France). The readout is the amount of cAMP generated in the cells treated with the test compounds, in either agonist or antagonist mode. The assays used were the mu opioid receptor cellular assay (MOP in agonist and antagonist mode), the delta2 opioid receptor cellular assay (DOP in agonist and antagonist mode) and the kappa opioid receptor cellular assay (KOP in agonist and antagonist mode). The assays used are described in Wang, J. B., et al. (1994) FEBS Lett 338: 217-222, Law, P. Y. and Loh, H. H. (1993) Mol Pharmacol 43: 684-693, and Avidor-Reiss, T., et al. (1995) FEBS Lett 361: 70-74. The stimulant for the cells in the DOR antagonist assay was 3×10E-8M DPDPE, a well-accepted DOR literature standard.

Compound | Characterization
CCCCCCCCO[C@@H]1O[C@H](C(=O)NCCCC[C@H](NC(=O)[C@H](Cc2ccccc2)NC(=O)[C@@H]2Cc3ccccc3CN2C(=O)[C@@H](N)Cc2c(C)cc(O)cc2C)C(=O)NC(C)(C)C(N)=O)[C@@H](O)[C@H](O)[C@H]1O [EU-A601, Dmt-Tic-Phe-Lys(C8-glucuronyl)-Aib-NH2] (H-[Dmt][Tic]FK(GlcA(β1-O-octyl))[Aib]-NH2) | Pure MOP Ag; pure DOP antag
CCCCCCCCCCCCO[C@@H]1O[C@H](C(=O)NCCCC[C@H](NC(=O)[C@H](Cc2ccccc2)NC(=O)[C@@H]2Cc3ccccc3CN2C(=O)[C@@H](N)Cc2c(C)cc(O)cc2C)C(N)=O)[C@@H](O)[C@H](O)[C@H]1O [EU-A179, Dmt-Tic-Phe-Lys(C12-glucuronyl)-NH2] (H-[Dmt][Tic]FK(GlcA(β-D,1-O-dodecyl))-NH2) | Pure MOP Ag; pure DOP antag
